This is an account of results in paper PMC6214915 (Scientific Reports, 2018).

The nature of the data set: general procedure: Fmoc solid-phase peptide synthesis; Rink amide resin; Oxyma/DIC. To be noted: whole synthesis.

Turning to KCVRQNNKRVCK-NH2, the isolated yield was determined as 66%.
